Reference: PubChem BioAssay AID1259308 (NCATS, 2017)

Test: 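Genes whose loss raises luciferase production in HEK293 cells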 (primary screen)
System: human HEK293 embryonic kidney cells stably expressing firefly luciferase (HEK-CMV-Luc2-Hygro)
Reagents: single siRNA against human genes, 0.8 pmol siRNA per well
Timing: 72 h
Measurement: 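Reporter luminescence and viable-cell signal on separate replicate plates, given as percent of non-targeting control and median/MAD z-scores, plus per-cell luciferase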
Scale: total luciferase, z-score: higher = more reporter protein produced
Hit rule: 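Active when the median/MAD z-score for overall luciferase is greater than 3; a gene was taken forward for validation with new siRNAs if at least two of its three siRNAs passed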
Meaning of the calls: active = raised luciferase; inactive = no rise
This is an unselected part of about 59,000 reagents tested. About 1,510 of them (2.6%) were called active. 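Calls use total luciferase alone and ignore viability, so some active siRNAs may act by altering cell number.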 Reagents against one gene are numbered here. Further read-outs or replicates are left out here.

RNF10 (ring finger protein 10) #1
- total luciferase, z-score: 0.00333
- Outcome: inactive

RNF10 (ring finger protein 10) #2
- total luciferase, z-score: 0.216
- Outcome: inactive

RNF10 (ring finger protein 10) #3
- total luciferase, z-score: 0.671
- Outcome: inactive

NBL1 (NBL1, DAN family BMP antagonist) #1
- total luciferase, z-score: 2.05
- Outcome: inactive

NBL1 (NBL1, DAN family BMP antagonist) #2
- total luciferase, z-score: 0.058
- Outcome: inactive

NBL1 (NBL1, DAN family BMP antagonist) #3
- total luciferase, z-score: -0.0748
- Outcome: inactive

P2RX6 (purinergic receptor P2X 6) #1
- total luciferase, z-score: -0.0451
- Outcome: inactive

P2RX6 (purinergic receptor P2X 6) #2
- total luciferase, z-score: 0.615
- Outcome: inactive

P2RX6 (purinergic receptor P2X 6) #3
- total luciferase, z-score: -0.33
- Outcome: inactive

LIMS2 (LIM zinc finger domain containing 2) #1
- total luciferase, z-score: 1.45
- Outcome: inactive

LIMS2 (LIM zinc finger domain containing 2) #2
- total luciferase, z-score: -0.151
- Outcome: inactive

LIMS2 (LIM zinc finger domain containing 2) #3
- total luciferase, z-score: 0.308
- Outcome: inactive

WWC3 (WWC family member 3) #1
- total luciferase, z-score: 1.07
- Outcome: inactive

WWC3 (WWC family member 3) #2
- total luciferase, z-score: -0.268
- Outcome: inactive

WWC3 (WWC family member 3) #3
- total luciferase, z-score: 0.273
- Outcome: inactive

CAPG (capping actin protein, gelsolin like) #1
- total luciferase, z-score: 0.679
- Outcome: inactive

CAPG (capping actin protein, gelsolin like) #2
- total luciferase, z-score: 1.26
- Outcome: inactive

CAPG (capping actin protein, gelsolin like) #3
- total luciferase, z-score: -1.09
- Outcome: inactive

CFAP68 (cilia and flagella associated protein 68) #1
- total luciferase, z-score: 2.39
- Outcome: inactive

CFAP68 (cilia and flagella associated protein 68) #2
- total luciferase, z-score: -0.159
- Outcome: inactive

CFAP68 (cilia and flagella associated protein 68) #3
- total luciferase, z-score: 0.84
- Outcome: inactive

MMRN2 (multimerin 2) #1
- total luciferase, z-score: 0.692
- Outcome: inactive

MMRN2 (multimerin 2) #2
- total luciferase, z-score: 0.212
- Outcome: inactive

MMRN2 (multimerin 2) #3
- total luciferase, z-score: 1.3
- Outcome: inactive

GDF11 (growth differentiation factor 11) #1
- total luciferase, z-score: -0.586
- Outcome: inactive

GDF11 (growth differentiation factor 11) #2
- total luciferase, z-score: -0.165
- Outcome: inactive

GDF11 (growth differentiation factor 11) #3
- total luciferase, z-score: 1.1
- Outcome: inactive

SCEL (sciellin) #1
- total luciferase, z-score: -0.676
- Outcome: inactive

SCEL (sciellin) #2
- total luciferase, z-score: -1.18
- Outcome: inactive

SCEL (sciellin) #3
- total luciferase, z-score: 0.0393
- Outcome: inactive

POLE4 (DNA polymerase epsilon 4, accessory subunit) #1
- total luciferase, z-score: -0.415
- Outcome: inactive

POLE4 (DNA polymerase epsilon 4, accessory subunit) #2
- total luciferase, z-score: 0.167
- Outcome: inactive

POLE4 (DNA polymerase epsilon 4, accessory subunit) #3
- total luciferase, z-score: -1.2
- Outcome: inactive

5 entries from above, sorted by “total luciferase, z-score”, highest first:
MMRN2 (multimerin 2) #3
- total luciferase, z-score: 1.3
- Outcome: inactive

GDF11 (growth differentiation factor 11) #3
- total luciferase, z-score: 1.1
- Outcome: inactive

MMRN2 (multimerin 2) #2
- total luciferase, z-score: 0.212
- Outcome: inactive

GDF11 (growth differentiation factor 11) #2
- total luciferase, z-score: -0.165
- Outcome: inactive

GDF11 (growth differentiation factor 11) #1
- total luciferase, z-score: -0.586
- Outcome: inactive
